Laboratory results published in paper PMC5841321.
Results are given in words; binding and its absence hold for the method and conditions named. Binding seen in cells or lysates may run through a third protein. A yes stands for co-enrichment or nearness to the bait. Other partners may have been found.

Sequences of proteins named here, by UniProt entry; tags and fusion partners are left off.
UniProt Q8N5Z5: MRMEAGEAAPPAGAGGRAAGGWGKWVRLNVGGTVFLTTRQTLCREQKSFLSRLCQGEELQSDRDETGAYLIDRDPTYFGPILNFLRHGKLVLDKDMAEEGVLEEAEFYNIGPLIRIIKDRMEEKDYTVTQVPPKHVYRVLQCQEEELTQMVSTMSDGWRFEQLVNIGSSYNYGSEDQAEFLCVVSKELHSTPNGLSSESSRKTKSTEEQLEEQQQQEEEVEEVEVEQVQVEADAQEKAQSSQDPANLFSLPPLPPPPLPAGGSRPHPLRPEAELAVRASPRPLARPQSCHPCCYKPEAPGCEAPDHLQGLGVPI
UniProt P05387: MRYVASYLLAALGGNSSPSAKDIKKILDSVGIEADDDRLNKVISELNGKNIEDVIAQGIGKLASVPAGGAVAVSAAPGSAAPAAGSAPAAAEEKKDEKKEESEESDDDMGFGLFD
UniProt P35579: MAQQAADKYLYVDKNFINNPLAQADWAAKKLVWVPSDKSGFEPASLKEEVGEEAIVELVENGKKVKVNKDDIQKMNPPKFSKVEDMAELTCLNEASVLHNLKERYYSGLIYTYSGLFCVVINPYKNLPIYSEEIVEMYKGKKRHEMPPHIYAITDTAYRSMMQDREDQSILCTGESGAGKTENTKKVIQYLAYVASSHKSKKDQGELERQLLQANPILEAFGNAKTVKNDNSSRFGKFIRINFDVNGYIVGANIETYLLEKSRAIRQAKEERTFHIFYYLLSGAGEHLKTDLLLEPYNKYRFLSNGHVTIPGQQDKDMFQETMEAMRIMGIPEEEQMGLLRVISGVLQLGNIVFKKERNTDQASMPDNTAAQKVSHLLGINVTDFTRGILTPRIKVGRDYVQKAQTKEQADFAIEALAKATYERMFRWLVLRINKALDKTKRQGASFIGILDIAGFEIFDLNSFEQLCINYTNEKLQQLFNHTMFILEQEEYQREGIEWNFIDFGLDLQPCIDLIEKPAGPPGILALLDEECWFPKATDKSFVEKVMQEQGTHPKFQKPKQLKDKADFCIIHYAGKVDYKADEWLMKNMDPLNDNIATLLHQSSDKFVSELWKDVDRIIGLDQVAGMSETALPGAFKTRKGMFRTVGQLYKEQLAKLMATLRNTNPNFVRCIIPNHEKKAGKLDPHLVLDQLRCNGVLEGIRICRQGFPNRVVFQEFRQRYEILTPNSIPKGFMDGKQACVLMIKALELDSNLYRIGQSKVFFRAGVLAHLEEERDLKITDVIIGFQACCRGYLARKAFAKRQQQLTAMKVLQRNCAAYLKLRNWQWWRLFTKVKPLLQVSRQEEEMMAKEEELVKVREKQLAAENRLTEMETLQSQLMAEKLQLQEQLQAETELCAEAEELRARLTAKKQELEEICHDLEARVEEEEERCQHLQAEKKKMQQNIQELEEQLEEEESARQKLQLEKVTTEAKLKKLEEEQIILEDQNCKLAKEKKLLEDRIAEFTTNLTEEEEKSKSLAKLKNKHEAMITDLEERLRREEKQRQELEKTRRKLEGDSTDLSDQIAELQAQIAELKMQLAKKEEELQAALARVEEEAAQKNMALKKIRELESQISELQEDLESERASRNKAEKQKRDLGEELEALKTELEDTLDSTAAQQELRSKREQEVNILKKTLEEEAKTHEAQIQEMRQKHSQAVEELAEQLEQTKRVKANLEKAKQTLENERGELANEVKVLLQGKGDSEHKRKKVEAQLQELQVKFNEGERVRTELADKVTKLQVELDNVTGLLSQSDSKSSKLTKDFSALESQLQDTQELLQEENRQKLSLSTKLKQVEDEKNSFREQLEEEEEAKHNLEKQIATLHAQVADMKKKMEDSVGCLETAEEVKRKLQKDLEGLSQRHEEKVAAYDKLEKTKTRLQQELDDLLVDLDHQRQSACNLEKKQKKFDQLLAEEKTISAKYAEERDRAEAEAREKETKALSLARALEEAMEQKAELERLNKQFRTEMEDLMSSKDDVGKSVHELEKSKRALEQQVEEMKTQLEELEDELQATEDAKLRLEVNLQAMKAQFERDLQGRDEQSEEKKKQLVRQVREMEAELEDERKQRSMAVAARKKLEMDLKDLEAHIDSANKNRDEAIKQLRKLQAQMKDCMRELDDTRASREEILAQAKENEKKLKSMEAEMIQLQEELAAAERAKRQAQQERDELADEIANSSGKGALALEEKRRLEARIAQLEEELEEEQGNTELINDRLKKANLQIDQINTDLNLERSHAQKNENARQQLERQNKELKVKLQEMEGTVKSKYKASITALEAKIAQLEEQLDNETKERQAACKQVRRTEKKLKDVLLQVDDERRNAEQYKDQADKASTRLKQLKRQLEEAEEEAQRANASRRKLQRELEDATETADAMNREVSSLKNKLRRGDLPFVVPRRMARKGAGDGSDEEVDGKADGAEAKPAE
UniProt O15371: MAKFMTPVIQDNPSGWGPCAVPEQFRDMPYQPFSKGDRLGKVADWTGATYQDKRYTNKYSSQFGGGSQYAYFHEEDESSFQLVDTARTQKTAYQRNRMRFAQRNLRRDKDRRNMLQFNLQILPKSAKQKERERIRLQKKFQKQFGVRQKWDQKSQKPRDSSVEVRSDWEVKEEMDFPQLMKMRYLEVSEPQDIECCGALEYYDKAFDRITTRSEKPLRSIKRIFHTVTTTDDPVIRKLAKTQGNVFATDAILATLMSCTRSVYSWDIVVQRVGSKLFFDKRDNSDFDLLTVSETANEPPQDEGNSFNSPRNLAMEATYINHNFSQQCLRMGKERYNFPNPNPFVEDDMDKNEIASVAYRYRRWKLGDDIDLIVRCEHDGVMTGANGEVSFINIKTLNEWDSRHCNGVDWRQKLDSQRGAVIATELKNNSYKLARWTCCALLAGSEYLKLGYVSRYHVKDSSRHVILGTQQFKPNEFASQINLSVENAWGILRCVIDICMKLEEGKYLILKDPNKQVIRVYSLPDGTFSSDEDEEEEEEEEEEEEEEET
UniProt Q9BUQ8: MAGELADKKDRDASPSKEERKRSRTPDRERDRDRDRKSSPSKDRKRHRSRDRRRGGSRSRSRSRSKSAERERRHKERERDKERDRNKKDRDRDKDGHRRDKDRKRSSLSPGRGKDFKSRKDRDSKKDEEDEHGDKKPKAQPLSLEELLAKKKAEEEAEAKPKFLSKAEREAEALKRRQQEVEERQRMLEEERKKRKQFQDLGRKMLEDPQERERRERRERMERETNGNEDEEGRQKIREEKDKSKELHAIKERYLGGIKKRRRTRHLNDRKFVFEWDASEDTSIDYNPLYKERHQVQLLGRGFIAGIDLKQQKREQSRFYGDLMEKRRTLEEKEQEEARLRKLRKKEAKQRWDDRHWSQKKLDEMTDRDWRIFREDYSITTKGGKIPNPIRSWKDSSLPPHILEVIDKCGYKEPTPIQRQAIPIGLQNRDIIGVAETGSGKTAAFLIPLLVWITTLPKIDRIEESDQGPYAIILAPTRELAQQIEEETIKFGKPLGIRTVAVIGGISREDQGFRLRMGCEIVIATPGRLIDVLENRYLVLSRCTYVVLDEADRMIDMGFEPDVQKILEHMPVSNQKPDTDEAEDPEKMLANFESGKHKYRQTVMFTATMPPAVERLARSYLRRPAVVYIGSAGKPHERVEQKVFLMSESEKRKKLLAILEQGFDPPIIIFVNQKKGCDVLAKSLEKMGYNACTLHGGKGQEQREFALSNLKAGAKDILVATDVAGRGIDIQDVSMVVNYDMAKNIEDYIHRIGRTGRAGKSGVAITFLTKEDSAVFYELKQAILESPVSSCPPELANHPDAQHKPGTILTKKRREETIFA
UniProt Q13509: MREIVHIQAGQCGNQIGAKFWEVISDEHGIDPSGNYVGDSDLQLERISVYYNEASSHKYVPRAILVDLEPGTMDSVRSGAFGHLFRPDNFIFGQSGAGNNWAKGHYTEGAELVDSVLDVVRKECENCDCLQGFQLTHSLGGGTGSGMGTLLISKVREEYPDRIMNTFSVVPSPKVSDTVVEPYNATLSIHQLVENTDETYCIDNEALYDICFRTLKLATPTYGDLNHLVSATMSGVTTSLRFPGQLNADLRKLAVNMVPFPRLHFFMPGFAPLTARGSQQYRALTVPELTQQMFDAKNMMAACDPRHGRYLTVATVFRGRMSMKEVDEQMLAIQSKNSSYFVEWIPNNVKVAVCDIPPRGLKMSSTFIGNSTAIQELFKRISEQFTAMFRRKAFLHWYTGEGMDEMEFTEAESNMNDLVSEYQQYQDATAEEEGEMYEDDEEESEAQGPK
UniProt O00303: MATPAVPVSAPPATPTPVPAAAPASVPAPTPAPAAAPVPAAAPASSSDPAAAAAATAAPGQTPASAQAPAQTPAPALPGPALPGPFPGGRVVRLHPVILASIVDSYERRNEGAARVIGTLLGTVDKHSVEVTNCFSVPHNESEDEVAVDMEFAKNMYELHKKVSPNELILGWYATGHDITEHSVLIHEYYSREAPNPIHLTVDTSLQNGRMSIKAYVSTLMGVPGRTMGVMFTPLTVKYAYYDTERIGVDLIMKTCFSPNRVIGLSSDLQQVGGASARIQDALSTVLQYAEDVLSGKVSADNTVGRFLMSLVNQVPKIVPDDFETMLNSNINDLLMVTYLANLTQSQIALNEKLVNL
UniProt Q13200: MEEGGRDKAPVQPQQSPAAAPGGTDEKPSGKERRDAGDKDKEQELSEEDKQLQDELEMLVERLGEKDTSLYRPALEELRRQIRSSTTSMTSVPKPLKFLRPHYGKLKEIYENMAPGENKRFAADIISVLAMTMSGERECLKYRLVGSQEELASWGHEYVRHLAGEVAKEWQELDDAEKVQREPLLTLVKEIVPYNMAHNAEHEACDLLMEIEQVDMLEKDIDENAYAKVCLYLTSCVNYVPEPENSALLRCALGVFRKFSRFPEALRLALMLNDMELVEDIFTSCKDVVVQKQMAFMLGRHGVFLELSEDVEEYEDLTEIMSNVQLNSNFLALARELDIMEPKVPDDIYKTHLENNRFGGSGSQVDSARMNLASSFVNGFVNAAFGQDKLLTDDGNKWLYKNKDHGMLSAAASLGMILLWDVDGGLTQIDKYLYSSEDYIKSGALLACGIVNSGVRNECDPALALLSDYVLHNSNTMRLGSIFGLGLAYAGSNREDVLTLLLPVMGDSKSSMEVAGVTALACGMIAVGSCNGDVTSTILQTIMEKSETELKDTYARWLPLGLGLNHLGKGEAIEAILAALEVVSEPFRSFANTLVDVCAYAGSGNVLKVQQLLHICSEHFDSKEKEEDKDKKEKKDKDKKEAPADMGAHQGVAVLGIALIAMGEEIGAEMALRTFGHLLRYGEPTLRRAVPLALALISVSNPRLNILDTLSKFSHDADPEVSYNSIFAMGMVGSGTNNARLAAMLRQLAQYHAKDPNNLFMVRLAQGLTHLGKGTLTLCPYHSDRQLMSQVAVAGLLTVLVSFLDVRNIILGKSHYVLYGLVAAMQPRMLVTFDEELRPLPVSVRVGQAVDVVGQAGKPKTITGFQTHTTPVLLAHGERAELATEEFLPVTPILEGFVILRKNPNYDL
UniProt P57678: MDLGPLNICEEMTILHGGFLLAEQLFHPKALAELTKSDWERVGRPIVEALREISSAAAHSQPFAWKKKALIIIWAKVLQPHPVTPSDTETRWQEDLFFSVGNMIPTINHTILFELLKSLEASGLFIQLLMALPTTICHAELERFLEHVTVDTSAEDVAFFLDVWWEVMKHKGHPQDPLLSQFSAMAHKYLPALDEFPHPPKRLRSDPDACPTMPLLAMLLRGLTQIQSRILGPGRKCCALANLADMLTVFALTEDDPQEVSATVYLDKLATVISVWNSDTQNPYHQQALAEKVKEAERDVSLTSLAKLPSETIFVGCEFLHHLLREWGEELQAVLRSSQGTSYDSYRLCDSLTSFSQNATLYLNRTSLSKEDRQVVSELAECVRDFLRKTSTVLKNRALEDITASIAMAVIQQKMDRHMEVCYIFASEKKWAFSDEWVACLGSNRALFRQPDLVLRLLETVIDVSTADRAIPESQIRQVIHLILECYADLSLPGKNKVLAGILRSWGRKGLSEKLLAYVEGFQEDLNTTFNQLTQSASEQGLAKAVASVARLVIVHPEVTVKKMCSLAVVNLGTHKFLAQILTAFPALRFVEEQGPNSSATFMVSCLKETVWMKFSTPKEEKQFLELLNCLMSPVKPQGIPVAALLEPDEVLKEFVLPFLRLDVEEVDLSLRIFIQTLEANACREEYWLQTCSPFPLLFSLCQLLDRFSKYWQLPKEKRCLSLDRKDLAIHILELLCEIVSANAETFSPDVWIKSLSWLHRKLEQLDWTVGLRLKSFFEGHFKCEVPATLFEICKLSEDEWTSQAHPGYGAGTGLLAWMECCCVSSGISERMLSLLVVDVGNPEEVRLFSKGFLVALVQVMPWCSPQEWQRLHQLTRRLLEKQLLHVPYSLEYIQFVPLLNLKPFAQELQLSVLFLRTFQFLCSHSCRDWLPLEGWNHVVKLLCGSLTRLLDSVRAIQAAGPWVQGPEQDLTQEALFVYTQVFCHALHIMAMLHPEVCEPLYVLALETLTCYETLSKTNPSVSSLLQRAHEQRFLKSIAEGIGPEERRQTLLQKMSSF

What follows are substances tested against T1, E3 ubiquitin-protein ligase Midline-1 (UniProt O15344) (assay: affinity purification with mass spectrometry; MID1-FLAG expressed in HEK293T, lysate in TKM buffer (20 mM Tris pH 7.4, 100 mM KCl, 5 mM MgCl2, 0.5% NP40, 1 mM DTT), anti-FLAG M1 agarose overnight at 4 °C, 6 washes; untransfected cells as control; Q-Exactive, MaxQuant, 1% FDR).
T1 sequence: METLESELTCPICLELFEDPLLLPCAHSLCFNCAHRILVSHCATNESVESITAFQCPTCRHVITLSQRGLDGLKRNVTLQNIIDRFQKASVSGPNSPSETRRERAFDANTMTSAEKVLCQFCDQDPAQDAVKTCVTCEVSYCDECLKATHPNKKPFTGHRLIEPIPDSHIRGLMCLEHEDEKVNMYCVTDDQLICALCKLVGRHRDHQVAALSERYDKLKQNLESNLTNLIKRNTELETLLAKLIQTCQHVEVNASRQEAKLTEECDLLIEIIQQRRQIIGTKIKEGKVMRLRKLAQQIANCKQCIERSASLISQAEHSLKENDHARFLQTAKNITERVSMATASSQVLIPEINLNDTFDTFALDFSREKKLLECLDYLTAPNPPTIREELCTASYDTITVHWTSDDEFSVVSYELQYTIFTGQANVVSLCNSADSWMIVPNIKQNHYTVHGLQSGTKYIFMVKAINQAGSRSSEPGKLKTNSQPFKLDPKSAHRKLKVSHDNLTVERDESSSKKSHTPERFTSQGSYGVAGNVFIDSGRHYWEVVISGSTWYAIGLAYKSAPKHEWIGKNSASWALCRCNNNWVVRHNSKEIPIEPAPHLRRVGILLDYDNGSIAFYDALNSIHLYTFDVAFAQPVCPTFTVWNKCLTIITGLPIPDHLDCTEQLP

Substance	binding
U5 small nuclear ribonucleoprotein 200 kDa helicase (from UniProt O75643 1-2136)	binds
Coronin-1C (from UniProt Q9ULV4 1-474)	binds
Activating signal cointegrator 1 complex subunit 3 (from UniProt Q8N3C0 1-2202)	binds
BTB/POZ domain-containing protein KCTD17 (from UniProt Q8N5Z5 1-314)	binds
Nucleolar GTP-binding protein 2 (from UniProt Q13823 1-731)	binds
RNA-binding motif protein, X chromosome (from UniProt P38159 1-391)	binds
60S acidic ribosomal protein P2 (from UniProt P05387 1-115)	binds
Eukaryotic initiation factor 4A-III (from UniProt P38919 1-411)	binds
Nucleolar RNA helicase 2 (from UniProt Q9NR30 1-783)	binds
26S proteasome non-ATPase regulatory subunit 12 (from UniProt O00232 1-456)	binds
26S proteasome non-ATPase regulatory subunit 7 (from UniProt P51665 1-324)	binds
Eukaryotic translation initiation factor 3 subunit C (from UniProt Q99613 1-913)	binds
Nicotinamide phosphoribosyltransferase (from UniProt P43490 1-491)	binds
Myosin-9 (from UniProt P35579 1-1960)	binds
Nuclease-sensitive element-binding protein 1 (from UniProt P67809 1-324)	binds
Splicing factor 3B subunit 3 (from UniProt Q15393 1-1217)	binds
Protein PRRC2A (from UniProt P48634 1-2157)	binds
LIM domain and actin-binding protein 1 (from UniProt Q9UHB6 1-759)	binds

Substance	binding
26S protease regulatory subunit 8 (from UniProt P62195 1-406)	binds
Vimentin (from UniProt P08670 1-466)	binds
Prolyl 4-hydroxylase subunit alpha-1 (from UniProt P13674 18-534)	binds
Transitional endoplasmic reticulum ATPase (from UniProt P55072 1-806)	binds
Proline-, glutamic acid- and leucine-rich protein 1 (from UniProt Q8IZL8 1-1130)	binds
Double-stranded RNA-binding protein Staufen homolog 1 (from UniProt O95793 1-577)	binds
Ribosome biogenesis protein BMS1 homolog (from UniProt Q14692 1-1282)	binds
Protein PRRC2C (from UniProt Q9Y520 1-2896)	binds
Nuclear cap-binding protein subunit 1 (from UniProt Q09161 1-790)	binds
26S proteasome non-ATPase regulatory subunit 10 (from UniProt O75832 1-226)	binds
Cleavage and polyadenylation specificity factor subunit 6 (from UniProt Q16630 1-551)	binds
U2 snRNP-associated SURP motif-containing protein (from UniProt O15042 1-1029)	binds
26S proteasome non-ATPase regulatory subunit 6 (from UniProt Q15008 1-389)	binds
26S protease regulatory subunit 4 (from UniProt P62191 1-440)	binds
26S proteasome non-ATPase regulatory subunit 3 (from UniProt O43242 1-534)	binds
26S protease regulatory subunit 6B (from UniProt P43686 1-418)	binds
40S ribosomal protein S30 (human (endogenous in HEK293T))	binds

More lines, now with the values ahead:

binding	Substance
binds	Eukaryotic translation initiation factor 3 subunit D (from UniProt O15371 1-548)
binds	SRSF protein kinase 2 (from UniProt P78362 1-688)
binds	26S protease regulatory subunit 10B (from UniProt P62333 1-389)
binds	Replication factor C subunit 3 (from UniProt P40938 1-356)
binds	Serine/threonine-protein kinase 38 (from UniProt Q15208 1-465)
binds	Eukaryotic translation initiation factor 3 subunit H (from UniProt O15372 1-352)
binds	Probable ATP-dependent RNA helicase DDX23 (from UniProt Q9BUQ8 1-820)
binds	26S proteasome non-ATPase regulatory subunit 4 (from UniProt P55036 1-377)
binds	Methylosome subunit pICln (from UniProt P54105 1-237)
binds	Polyadenylate-binding protein 1 (from UniProt P11940 1-636)
binds	26S protease regulatory subunit 7 (from UniProt P35998 1-433)
binds	Serine/arginine-rich splicing factor 1 (from UniProt Q07955 1-248)
binds	Methylosome protein 50 (from UniProt Q9BQA1 1-342)
binds	Microtubule-associated protein 1B (from UniProt P46821 1-2468)
binds	Importin-8 (from UniProt O15397 1-1037)
binds	Tight junction protein ZO-2 (from UniProt Q9UDY2 1-1190)
binds	Probable ATP-dependent RNA helicase DDX41 (from UniProt Q9UJV9 1-622)
binds	Insulin-like growth factor 2 mRNA-binding protein 3 (from UniProt O00425 1-579)

binding	Substance
binds	Spectrin beta chain, non-erythrocytic 1 (from UniProt Q01082 1-2364)
binds	Tubulin beta-3 chain (from UniProt Q13509 1-450)
binds	Eukaryotic translation initiation factor 3 subunit F (from UniProt O00303 1-357)
binds	RNA-binding protein 10 (from UniProt P98175 1-930)
binds	Probable ATP-dependent RNA helicase DDX5 (from UniProt P17844 1-614)
binds	Serine/threonine-protein kinase MARK2 (from UniProt Q7KZI7 1-788)
binds	Eukaryotic translation initiation factor 3 subunit E (from UniProt P60228 1-445)
binds	T-complex protein 1 subunit epsilon (from UniProt P48643 1-541)
binds	Interleukin enhancer-binding factor 2 (from UniProt Q12905 1-390)
binds	Unconventional myosin-Ib (from UniProt O43795 1-1136)
binds	26S proteasome non-ATPase regulatory subunit 2 (from UniProt Q13200 1-908)
binds	Telomere-associated protein RIF1 (from UniProt Q5UIP0 1-2472)
binds	Protein arginine N-methyltransferase 5 (from UniProt O14744 1-637)
binds	Gem-associated protein 4 (from UniProt P57678 1-1058)
binds	Putative pre-mRNA-splicing factor ATP-dependent RNA helicase DHX15 (from UniProt O43143 1-795)
binds	La-related protein 4 (from UniProt Q71RC2 1-724)
binds	26S protease regulatory subunit 6A (from UniProt P17980 1-439)
binds	26S proteasome non-ATPase regulatory subunit 13 (from UniProt Q9UNM6 1-376)
